Data on 2 sequences can be found in publication PMC11968270.

The exact form of at least one protein or probe is not confirmed. For part of these data: No signal at the amounts used counts as a negative.

In data set [1] the test system is GST-SlMYB72 (Solanum lycopersicum (tomato)). The experiment in a line: competition with a labelled probe. The settings on record: unlabeled competitor about 1 uM (50x) eliminates shift of N1; EMSA with LightShift Chemiluminescent kit (Thermo); about 0.02 uM biotin probe, about 2 ug protein per lane; pH and temperature not stated; recombinant protein; protein details: GST (N-terminal, pGEX-4T-1). For orientation: Mobility shift assays separate free from complexed probe on a gel.

The test system is the same in data set [2]. The experiment in a line: EMSA. Conditions: about 0.02 uM probe, 2 ug protein; EMSA with LightShift Chemiluminescent kit (Thermo); about 0.02 uM biotin probe, about 2 ug protein per lane; pH and temperature not stated; recombinant protein; protein details: GST (N-terminal, pGEX-4T-1); label: biotin.
The test system of data set [3] is GST. The experiment in a line: EMSA. Conditions: about 0.02 uM probe, 2 ug protein; EMSA with LightShift Chemiluminescent kit (Thermo); about 0.02 uM biotin probe, about 2 ug protein per lane; pH and temperature not stated; recombinant protein; protein details: GST; label: biotin.

Consider “GTGATATCATATACTGTTGTATTCATTTTG (double strand) [SlCycB2 promoter cold probe]”, for which, in data set [1], the binding result is on record as “binds”.
Turning to “GTGATATCATATACTGTTGTATTCATTTTG (double strand) [SlCycB2 promoter probe]”, the binding result in data set [2] was “binds”; in data set [3], “no binding”.
